# From PubChem BioAssay AID2685 (National Center for Advancing Translational Sciences (NCATS), 2010)
# Some of the results follow. These are further read-outs of the screen, such as a control signal, another cell line or another target. No call is given for them. Most of these compounds were active or inconclusive in the main read-out, so they are no random draw. The note in brackets gives the kind of curve behind each potency; many fits are weak.
# Assay: qHTS Assay for Lipid Storage Modulators in Drosophila S3 Cells;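 on cell number change: cells counted by Cell Tracker Red CMTPX staining in the red channel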
# Conditions: BODIPY lipid droplet fluorescence, 18-24 h; for cell number change: measured here: cell count max response, cells fed with added oleic acid
# Procedure, shortened: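 Laser-scanning cytometry quantifies lipid droplet accumulation (500–530 nm total intensity; droplet/cell object ratio) in oleic acid-fed (400 uM added) Drosophila S3 cells treated with a concentration series. 20 uM Triacsin C defined 100% inhibition.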
# [1] = measured here: cell number channel AC50, cells fed with added oleic acid
# [2] = measured here: lipid fluorescence (Fed channel) AC50, cells fed with added oleic acid
Compound,cell number change [%],AC50 [1],AC50 [2]
COc1ccc(NC(=O)c2cccc(Oc3ccc([N+](=O)[O-])cc3Cl)c2)cc1,-1.93,"6.51 µM [rising, single point]","32.6 µM [rising, single point]"
Cc1c(C(=O)NN2CCOCC2)oc2c1ccc1ccccc12,-17.6,–,–
CCS(=O)(=O)N1Cc2ccccc2CC1C(=O)Nc1cc(S(C)(=O)=O)ccc1Cl (stereo not drawn),25.4,–,"6.51 µM [rising, partial curve]"
CCCN(C(=O)Cn1ncc2c(=O)oc3ccccc3c21)c1cccc(C)c1,-12.3,–,"16.4 µM [falling, single point]"
CCOC(=O)c1cn(CC)c2c(ccc3ccccc32)c1=O,-1.1,–,–
Cc1cc([N+](=O)[O-])nn1CC(=O)Nc1ccc(Cl)cn1,-39.6,–,–
COc1cc(C=O)ccc1OCCOCCOc1ccccc1Cl,-35.9,"7.31 µM [falling, partial curve, poor fit]",–
COc1ccc(C(=O)Nc2ccc3ccccc3c2)cc1OC,-22,–,–
N#Cc1ccc(-c2nc3ccccc3c(=O)n2O)cc1,-39.5,"7.31 µM [falling, partial curve]","5.17 µM [falling, partial curve]"
Cc1ccc(S(=O)(=O)N(C)C)cc1NC(=S)N1CCN(Cc2ccc3c(c2)OCO3)CC1,63.6,"9.2 µM [rising, partial curve, poor fit]",–
Cc1onc(-c2c(F)cccc2Cl)c1C(=O)OCC(=O)NC(=O)NCC(C)C,85.4,–,–
CN(C(=O)c1ccccc1)C1c2c(ccc3ccccc23)OCC1CO (stereo not drawn),96.4,–,"6.51 µM [falling, single point]"
COc1ccccc1NC(=O)CSc1nnc(C2CCCCC2)o1,36.8,"29.1 µM [rising, single point]",–
N#Cc1cccc(C(=O)OCC(=O)N2CCCc3ccccc32)c1,-19.6,–,"11.6 µM [falling, partial curve, poor fit]"
CSc1ccccc1OCc1cc(C(=O)N(C)C(C)c2nc(C)cs2)no1 (stereo not drawn),-9.63,–,–
O=C(OCc1ccccc1)c1cc(S(=O)(=O)N2CCCCC2)ccc1N1CCOCC1,-28.9,–,"29.1 µM [falling, single point]"
Cc1ccc(-c2nnc(SCC(N)=O)nc2-c2ccc(C)cc2)cc1,2.25,–,–
COc1ccc(Cl)cc1S(=O)(=O)N(C)CC(=O)NCc1ccccn1,26.5,–,–
Cc1onc(-c2ccccc2)c1C(=O)c1c[nH]c(C(=O)NCc2ccccn2)c1,-11.7,–,–
O=C(NCCCn1ccnc1)/C(=C\c1cccnc1)NC(=O)c1ccco1,-51,"29.1 µM [falling, single point]",–
Cc1cccc(NC(=O)C(C)SCc2nc3sc(C)c(C)c3c(=O)[nH]2)n1 (stereo not drawn),-5.45,"0.206 µM [rising, full curve]",–

# Quoted at random: two compounds from above
Compound,cell number change [%],AC50 [1],AC50 [2]
COc1ccc(Cl)cc1S(=O)(=O)N(C)CC(=O)NCc1ccccn1,26.5,–,–
N#Cc1cccc(C(=O)OCC(=O)N2CCCc3ccccc32)c1,-19.6,–,"11.6 µM [falling, partial curve, poor fit]"

# Further results follow.

Compound,cell number change [%],AC50 [1],AC50 [2]
O=C(CCNC(=O)c1ccccc1)NCC1CCCCC1,-20.6,–,–
CCN(CCNC(=O)c1cccc(N2CCCC2=O)c1)c1ccccc1,109,"6.51 µM [rising, partial curve, poor fit]","1.64 µM [rising, partial curve]"
O=C(NN1C(=O)NC2(CCCCC2)C1=O)c1cc(F)cc(F)c1,14.5,"0.517 µM [falling, single point]",–
CCOc1ccc(NC(=O)C2CC(=O)N(c3ccc4c(c3)OCCO4)C2)cc1OCC (stereo not drawn),37,"2.59 µM [rising, partial curve, poor fit]","2.91 µM [rising, full curve]"
CC1CN(C(=O)COC(=O)Cc2ccc(Cl)cc2)CC(C)O1 (stereo not drawn),0.778,–,"7.31 µM [falling, partial curve, poor fit]"
Cc1ccc(S(=O)(=O)N(CC(=O)Nc2cc(C)ccc2C)C(=O)N2CCN(C)CC2)cc1,-13.7,–,–
O=C1C2C3C=CC(CNS(=O)(=O)c4ccccc4[N+](=O)[O-])(O3)C2C(=O)N1c1ccccc1 (stereo not drawn),56.7,"29.1 µM [rising, single point]","29.1 µM [rising, single point]"
COc1ccccc1-c1nnc(SCC(=O)Nc2ccc(S(N)(=O)=O)cc2)n1C,–,"0.82 µM [rising, single point]",–
COCCN(CCOC)c1ncnc2c1cnn2-c1ccc(Cl)cc1,–,"6.51 µM [rising, single point]","4.61 µM [rising, single point]"
COC(=O)c1c(C)oc(C)c1S(=O)(=O)NC(C)(C)C,-8.24,–,"0.164 µM [falling, full curve, poor fit]"
COc1ccc(S(=O)(=O)NCc2ccccn2)cc1Cl,–,"0.164 µM [falling, full curve, poor fit]",–
Cc1cc(NC(=O)c2cc(-c3ccncc3)nc3c(C)cccc23)no1,4.38,–,"0.0231 µM [rising, full curve, poor fit]"
COc1ccccc1OCC(=O)NC1CCSc2ccccc21 (stereo not drawn),15.2,"0.517 µM [falling, full curve]","25.9 µM [rising, partial curve]"
OC(CNc1ncnc2sccc12)c1ccccc1 (stereo not drawn),18.9,–,"29.1 µM [rising, single point]"
NC(=O)c1ccc(NC(=O)COC(=O)/C=C/c2cccs2)cc1,60.2,"0.0058 µM [falling, full curve, poor fit]","0.00517 µM [falling, full curve, poor fit]"
COc1ccc(CCN(Cc2ccccn2)C(=S)Nc2ccc(C)cc2)cc1OC,–,"0.0058 µM [rising, full curve, poor fit]","0.0092 µM [rising, full curve, poor fit]"
COc1cc(NS(=O)(=O)c2ccc(NC(=O)CCC(=O)O)cc2)nc(OC)n1,-9.01,"0.651 µM [rising, single point]","0.58 µM [rising, single point]"
CCc1nnc(NC(=O)CCS(=O)(=O)Cc2ccccc2)s1,2.56,–,–
Cc1cccc(C)c1Nc1nnc(SCc2nc3ccccc3c(=O)[nH]2)s1,-9.24,–,"29.1 µM [falling, single point]"
Cc1cccc2c(N=NC(=O)c3ccc(NS(=O)(=O)c4cccs4)cc3)c(O)[nH]c12,-98.7,"18.4 µM [falling, partial curve]","3.26 µM [falling, full curve]"
O=S(=O)(NCC(c1ccco1)N1CCN(c2ccc(F)cc2)CC1)c1ccc2c(c1)OCCO2 (stereo not drawn),-40.5,"29.1 µM [falling, single point]","0.13 µM [falling, full curve]"

# Exported with bars between the fields: part of the list above.
Compound | cell number change [%] | AC50 [1] | AC50 [2]
OC(CNc1ncnc2sccc12)c1ccccc1 (stereo not drawn) | 18.9 | – | 29.1 µM [rising, single point]
Cc1cccc2c(N=NC(=O)c3ccc(NS(=O)(=O)c4cccs4)cc3)c(O)[nH]c12 | -98.7 | 18.4 µM [falling, partial curve] | 3.26 µM [falling, full curve]

# Next records

Compound,cell number change [%],AC50 [1],AC50 [2]
CCCC(=O)Nc1cc(OC)c(C(=O)OC)cc1Cl,-8.92,–,"6.51 µM [rising, single point]"
O=C1CCCC2=C1C(c1ccccc1)NC(=S)N2 (stereo not drawn),-141,"29.1 µM [falling, single point]","29.1 µM [falling, single point]"
COc1cc(C(=O)N/C(=C\c2cn(C)c3ccccc23)C(=O)N2CCOCC2)cc(OC)c1OC,-55.2,"29.1 µM [falling, single point]","29.1 µM [falling, single point]"
O=C(Nc1ccccc1N1CCOCC1)c1ccc2ccccc2c1,0.84,–,–
CCCCNC(=O)CSc1ccc(S(=O)(=O)N2CCOCC2)cn1,14.3,–,"0.517 µM [rising, single point]"
COc1ccc(-c2cc(=O)oc3cc(OCC(=O)c4cccc([N+](=O)[O-])c4)ccc23)cc1,8.04,–,"23.1 µM [rising, partial curve]"
COC(=O)c1ccc(NC(=O)c2cc[n+](Cc3ccccc3)cc2)cc1,18.2,–,"29.1 µM [rising, partial curve, poor fit]"
CCOC(=O)c1[nH]c2ccccc2c1NC(=O)c1nonc1C,–,–,"6.51 µM [falling, single point]"
COc1ccc(CC(=O)NCc2ccc3c(c2)cc(C)n3C)cc1,25.5,–,"25.9 µM [rising, partial curve]"
Cc1ccc2c(c1)c1c(n2C)-c2[nH]ncc2CC1,-45.7,"32.6 µM [falling, single point]","29.1 µM [falling, single point]"
CC(C)(C)OC(=O)NNc1c2ccccc2nc2ccccc12,-15.9,–,"6.51 µM [rising, single point]"
COC(=O)c1cc(Br)ccc1NC(=O)CCNC(=O)c1ccco1,6.52,–,"29.1 µM [rising, single point]"
N#CC1(NC(=O)COC(=O)Cn2[nH]c(=O)c3ccccc3c2=O)CCCCC1,9.32,–,"16.4 µM [falling, single point]"
CN(c1ncnc(N)c1[N+](=O)[O-])C1CCCCC1,-7.58,–,–
COc1ccc(NC(C)=O)cc1S(=O)(=O)Nc1cccc(S(=O)(=O)NC2=NCCC2)c1,-3.89,–,"2.91 µM [rising, single point]"
CCOc1ccc(C(C)NC(=O)c2ccccc2OCc2c(C)noc2C)cc1OCC (stereo not drawn),8.18,–,"18.4 µM [falling, single point]"
CC1CCN(CCCNC(=O)c2ccc3c(=O)n(Cc4ccc(Cl)cc4)c(=S)[nH]c3c2)CC1,13.7,"2.06 µM [rising, partial curve]",–
COc1ccc(NC(=O)c2cccc3c(Br)cccc23)cc1,1.04,–,–
O=C(CCc1ccccc1)Nc1ccc(F)c([N+](=O)[O-])c1,11.7,"6.51 µM [falling, single point]","6.51 µM [falling, single point]"
